# Library screen at single concentrations

Data taken from ChEMBL document CHEMBL3988442, “University of Dundee, Small-Polar-MMV Screening Library” (2021).

Mtb glucose medium: 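Phenotypic screen: M. tuberculosis growth, glucose 7H9 medium, 3 days; the read-out is not stated. Concentration: 50 µM. The record gives no direction; compounds that gave an IC50 in retests scored well above the rest, so higher reads as more growth inhibition. Size under these conditions: about 69,000 compounds, about 760 of them at 50% or above in at least one test.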
Mtb cholesterol medium: 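Phenotypic screen: M. tuberculosis growth, cholesterol and DPPC medium, 4 days; the read-out is not stated. Compounds at 50 µM. The record gives no direction; compounds that gave an IC50 in retests scored well above the rest, so higher reads as more growth inhibition. About 69,000 compounds were tested under these conditions; 0.54% (about 370) showed 50% or more at least once.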

The filed quantity is “Percent Effect” (%). How 0% and 100% were set is not recorded. Most values in the screen are low, and negative values occur. This is an unselected part of the compounds tested. Two or more numbers in one place are separate tests of the same structure; such repeats can differ widely.

{"smiles": "Cc1ncsc1CNC(=O)NCC1(c2ccc3c(c2)OCO3)CC1", "Mtb glucose medium": -31.66, "Mtb cholesterol medium": -24.6}
{"smiles": "COC(=O)CN1CCN(c2cccc(C)c2)CC1", "Mtb glucose medium": 16.71, "Mtb cholesterol medium": "10.29 and 14.57"}
{"smiles": "Cc1ccccc1CS(=O)(=O)c1nnc(C(C)NC(=O)OC(C)(C)C)o1", "stereo": "stereo not given", "Mtb glucose medium": 5.513, "Mtb cholesterol medium": 13.99}
{"smiles": "Cc1noc(C(C)N(C)CC(=O)NCCc2ccc(Cl)cc2)n1", "stereo": "stereo not given", "Mtb glucose medium": 4.18, "Mtb cholesterol medium": -18.64}
{"smiles": "O=C(O)C(F)(F)F.O=C1COC2(CCN(c3ccccn3)CC2)CN1", "Mtb glucose medium": 65.4, "Mtb cholesterol medium": 26.89}
{"smiles": "FC1(F)CCN(Cc2ccncc2)CC12CCN(Cc1ccccn1)C2.O=C(O)C(F)(F)F.O=C(O)C(F)(F)F.O=C(O)C(F)(F)F", "stereo": "stereo not given", "Mtb glucose medium": -12.55, "Mtb cholesterol medium": -17.92}
{"smiles": "CCCn1cc(S(=O)(=O)N[C@H]2CN(CCO)C[C@@H]2C2CC2)cn1", "Mtb glucose medium": 19.42, "Mtb cholesterol medium": "1.027 and -11.24"}
{"smiles": "[H][C@@]12CS(=O)(=O)C[C@]1([H])N(C(=O)c1ccnn1CCC)CCN2C(=O)C1CC1", "Mtb glucose medium": -25.03, "Mtb cholesterol medium": "-20.18 and 3.993"}
{"smiles": "Cn1nc(CNC(=O)c2ccc3nsnc3c2)c2c1CCOC2", "Mtb glucose medium": 6.215, "Mtb cholesterol medium": 2.874}
{"smiles": "O=C1CCCc2[nH]c(=O)c(C(=O)N3CCc4ccccc4C3)cc21", "Mtb glucose medium": -33.36, "Mtb cholesterol medium": -1.725}
{"smiles": "COC(C)(C)c1noc(C2(C#N)CCCC2)n1", "Mtb glucose medium": "-19.18 and -1.299", "Mtb cholesterol medium": -5.705}
{"smiles": "[H][C@@]12CS(=O)(=O)C[C@]1([H])N(Cc1ncc[nH]1)CCN2C/C=C/c1ccccc1", "Mtb glucose medium": -12.5, "Mtb cholesterol medium": -14.74}
{"smiles": "O=C(O)CC(O)(CC(=O)O)C(=O)O.[H][C@@]12CC[C@@](O)(c3ccc(C)cn3)[C@]1([H])CN(Cc1cccc(Cl)c1Cl)C2", "Mtb glucose medium": 50.17, "Mtb cholesterol medium": 22.98}
{"smiles": "Cn1cc(N2CC3(CCN(Cc4ccccc4)CC3)OCC2=O)cn1.O=C(O)C(F)(F)F", "Mtb glucose medium": -3.271, "Mtb cholesterol medium": -6.857}
{"smiles": "O=C1OC2(CCNCC2)CN1CC(=O)N1CCCC1c1ccco1", "stereo": "stereo not given", "Mtb glucose medium": -15.81, "Mtb cholesterol medium": 30.8}
{"smiles": "CCOCCNC(=O)c1cc(COc2cncc(Cl)c2)on1", "Mtb glucose medium": -8.99, "Mtb cholesterol medium": "-2.732 and -4.839"}
{"smiles": "Cc1cccc(CN2CCCC3(CCC(=O)N3CCN(C)C)CC2)n1.O=C(O)C(F)(F)F.O=C(O)C(F)(F)F", "stereo": "stereo not given", "Mtb glucose medium": -19.95, "Mtb cholesterol medium": "-5.616 and -3.406"}
{"smiles": "COc1cc(C(=O)NCCS(=O)(=O)N(C)C)c2ccccc2n1", "Mtb glucose medium": -8.243, "Mtb cholesterol medium": -4.392}
{"smiles": "Cn1nc(C(=O)N2CCOCC2)cc1C(=O)Nc1ccc(Cl)cc1Cl", "Mtb glucose medium": 4.878, "Mtb cholesterol medium": 7.918}
{"smiles": "COCCCNC(=O)CN(C)C(=O)c1ccc(-n2cccc2)cc1O", "Mtb glucose medium": 26.34, "Mtb cholesterol medium": 24.03}
{"smiles": "Cc1ccc(S(=O)(=O)NCCCN2CCC(O)CC2)cc1Cl", "Mtb glucose medium": "10.13 and 10.2", "Mtb cholesterol medium": -1.416}
{"smiles": "CC(=O)N1CCCC1c1cc(N2CCN(C3CCCC3)CC2)cc(C)n1", "stereo": "stereo not given", "Mtb glucose medium": -15.35, "Mtb cholesterol medium": -30.23}
{"smiles": "Cc1ccc(C(=O)N2CCC3(CC2)CC(c2cnn(C)c2)CO3)cn1.O=C(O)C(F)(F)F", "stereo": "stereo not given", "Mtb glucose medium": -6.969, "Mtb cholesterol medium": "-1.459 and 15.51"}
{"smiles": "Cc1cc(C(=O)NCc2cccs2)c2c(C3CCCN3)noc2n1", "stereo": "stereo not given", "Mtb glucose medium": 21.3, "Mtb cholesterol medium": -1.285}
{"smiles": "CCCc1nc(N2CCN(CC)CC2)c2c(n1)c(C)nn2CC", "Mtb glucose medium": -23.47, "Mtb cholesterol medium": -14.77}
{"smiles": "Cc1cc(C(=O)N2CC(=O)Nc3cnccc32)c(Cl)cc1F", "Mtb glucose medium": 0.6651, "Mtb cholesterol medium": "-12.08 and 7.325"}
{"smiles": "O=C(O)C(F)(F)F.[H][C@]12CN(c3ccccc3)C(=O)[C@@]1([H])CN(C1CCOC1)C2", "stereo": "stereo not given in full", "Mtb glucose medium": "11.93 and 50.58", "Mtb cholesterol medium": 17.03}
{"smiles": "CNC(=O)c1cccc(CN2CCN(c3ccncc3)CC2)c1", "Mtb glucose medium": 18.08, "Mtb cholesterol medium": 15.36}
{"smiles": "CC(NC(=O)NCCC1=CCCCC1)c1nncn1C", "stereo": "stereo not given", "Mtb glucose medium": -33, "Mtb cholesterol medium": 1.535}
{"smiles": "O=C(NCCCN1CCc2ccccc2C1)c1ccccc1Cl", "Mtb glucose medium": -10.04, "Mtb cholesterol medium": -6.914}
{"smiles": "Cc1nn(CC(=O)O)c2nccc(-c3ccc(F)cc3)c12", "Mtb glucose medium": 21.31, "Mtb cholesterol medium": -15.96}
{"smiles": "O=S(=O)(N1CCCCC1)N1CCCN(CC2CCCO2)CC1", "stereo": "stereo not given", "Mtb glucose medium": "-17.44 and 1.925", "Mtb cholesterol medium": 8.021}
{"smiles": "O=C(CN1C=Nc2ccccc2S1(=O)=O)NCCCc1ccccc1", "Mtb glucose medium": 4.609, "Mtb cholesterol medium": 4.952}
{"smiles": "O=C(NCC(=O)N1CCCC(n2cncn2)C1)OCc1ccccc1", "stereo": "stereo not given", "Mtb glucose medium": -15.18, "Mtb cholesterol medium": -35.98}
{"smiles": "CCOCCCC(=O)NC1CCN(C(C)c2ccccc2)CC1", "stereo": "stereo not given", "Mtb glucose medium": "-1.783 and -37.19", "Mtb cholesterol medium": -15.81}
{"smiles": "Cc1ccc(-c2nc(CC(=O)NCC3CCCN(C(C)C)C3)cs2)o1", "stereo": "stereo not given", "Mtb glucose medium": -58.86, "Mtb cholesterol medium": -29.13}
{"smiles": "O=C(CN1CC(n2cccn2)C1)NCCc1c[nH]c2ccccc12", "Mtb glucose medium": 20.89, "Mtb cholesterol medium": -2.761}